Measurements: patent US20230210943A1 (PEMI31 THERAPEUTICS, published 2023)
Results are given in words; binding and its absence hold for the method and conditions named. Some binding calls cover weakened binding; strength is not graded here.

By UniProt entry, the sequences of proteins in these tests, tags left out. Where a name states a change or a piece, a line headed by the entry shows the natural chain unless it says otherwise.
UniProt P04792: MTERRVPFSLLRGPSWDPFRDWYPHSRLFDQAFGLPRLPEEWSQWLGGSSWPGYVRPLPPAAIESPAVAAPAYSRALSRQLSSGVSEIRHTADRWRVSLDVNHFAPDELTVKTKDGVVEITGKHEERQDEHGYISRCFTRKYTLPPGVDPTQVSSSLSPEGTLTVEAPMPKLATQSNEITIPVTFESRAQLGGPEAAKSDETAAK

Target: T1, scavenger receptor SR-AI pulled down from macrophage membrane extracts or lysates (UniProt P21757)
T1 sequence (looked up): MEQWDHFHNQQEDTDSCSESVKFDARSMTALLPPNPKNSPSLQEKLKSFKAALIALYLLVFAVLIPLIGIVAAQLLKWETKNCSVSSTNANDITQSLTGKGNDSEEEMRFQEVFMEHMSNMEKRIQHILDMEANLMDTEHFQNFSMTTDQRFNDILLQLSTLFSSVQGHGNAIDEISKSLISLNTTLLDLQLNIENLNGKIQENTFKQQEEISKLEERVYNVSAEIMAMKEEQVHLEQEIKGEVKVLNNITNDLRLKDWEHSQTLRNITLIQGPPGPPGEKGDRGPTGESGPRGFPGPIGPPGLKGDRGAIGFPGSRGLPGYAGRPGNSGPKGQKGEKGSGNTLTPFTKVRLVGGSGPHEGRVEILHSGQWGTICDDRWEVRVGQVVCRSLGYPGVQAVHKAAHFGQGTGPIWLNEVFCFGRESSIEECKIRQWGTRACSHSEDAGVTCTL
Assay: plate binding assay on SR-AI pulled down from macrophage membrane extracts

- binding: binds
Substance: HIS-tagged full-length HSP27 polypeptide (rHSP27) (from UniProt P04792 2-205)
